PubChem BioAssay AID743456 – Peter MacCallum Cancer Centre | 2014
Here is a random part of 878 reagents. Of all reagents, 27 (3.1%) got an active call. 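27 mimics are marked active, unlike an earlier stated count of 24; the viability threshold is described inconsistently.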 Not given: the amount of reagent.

- Aim: 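Mimic library tested for viability and apoptosis changes under vorinostat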 (primary screen)
- Cells: human HCT116-VR colon cancer cells, a vorinostat-resistant HCT116 line
- Reagent: miRNA mimic
- Duration: about 3 days from transfection to readout; drug present for the last 24 h
- Challenge: vorinostat at 2.5 µM final for 24 h
- Read-out: 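Cell viability from CellTiter-Fluor signal and caspase activity from luminescence after 24 h vorinostat at 2.5 µM, given as robust z-scores and as ratios to mock-transfected wells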
- Reading the numbers: viability robust z-score and viability vs mock transfection: higher = more viable cells; caspase robust z-score: higher = more caspase activity, more apoptosis
- Active means: 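Active when viability drops or caspase activity climbs beyond robust z thresholds, with wells of poor cell health excluded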

viability robust z-score,caspase robust z-score,viability hit class,caspase hit class,viability vs mock transfection,outcome,microRNA
0.6,-0.6,no change,no change,0.89,inactive,hsa-miR-2054
1.07,-0.46,no change,no change,0.97,inactive,hsa-miR-155*
-1.24,-1.02,no change,no change,0.61,inactive,hsa-miR-302f
-2.43,0.66,no change,no change,0.32,inactive,hsa-miR-765
-2.11,3.61,no change,no change,0.44,inactive,hsa-miR-92a-1*
-1.7,5.69,no change,caspase activation,0.5,active,hsa-miR-1286
-1.68,6.48,no change,caspase activation,0.45,active,hsa-miR-1269
1.34,-0.24,no change,no change,1.01,inactive,hsa-miR-598
-0.26,0.74,no change,no change,0.74,inactive,hsa-miR-181c
0.7,-0.14,no change,no change,0.87,inactive,hsa-miR-200b
1.74,-0.33,no change,no change,1.06,inactive,hsa-miR-641
-0.78,3.14,no change,no change,0.68,inactive,hsa-miR-1266
-0.43,-0.24,no change,no change,0.73,inactive,hsa-miR-603
-0.06,-0.3,no change,no change,0.78,inactive,hsa-miR-885-5p
-1.56,-0.57,no change,no change,0.53,inactive,hsa-miR-501-5p
0.2,-0.76,no change,no change,0.82,inactive,hsa-miR-1247
0.19,1.18,no change,no change,0.82,inactive,hsa-miR-184
-1.21,0.4,no change,no change,0.54,inactive,hsa-miR-101*
1.54,-0.38,no change,no change,1.02,inactive,hsa-miR-199b-5p
-2.17,2.34,no change,no change,0.36,inactive,hsa-miR-1270
0.84,-0.53,no change,no change,0.93,inactive,hsa-miR-548c-5p
-0.9,0.14,no change,no change,0.64,inactive,hsa-miR-377*
0.91,-0.36,no change,no change,0.94,inactive,hsa-miR-548g
-0.42,1.38,no change,no change,0.68,inactive,hsa-miR-424
-1.7,2.64,no change,no change,0.44,inactive,hsa-miR-1271
0.99,-0.48,no change,no change,0.95,inactive,hsa-miR-1206
-0.92,2.79,no change,no change,0.63,inactive,hsa-miR-149*
0.96,-0.33,no change,no change,0.94,inactive,hsa-miR-923
0.8,-0.57,no change,no change,0.92,inactive,hsa-miR-142-5p
-0.88,3.33,no change,no change,0.6,inactive,hsa-miR-134
-0.64,0.55,no change,no change,0.64,inactive,hsa-miR-31
0.66,-0.81,no change,no change,0.9,inactive,hsa-miR-23a
0.45,-0.88,no change,no change,0.86,inactive,hsa-miR-487a
-2.4,4.63,no change,caspase activation,0.38,active,hsa-miR-34c-5p
-0.05,3.38,no change,no change,0.74,inactive,hsa-miR-371-3p
-0.08,-0.96,no change,no change,0.78,inactive,hsa-miR-146b-5p
1.11,0.72,no change,no change,0.98,inactive,hsa-miR-382
-1.86,1.27,no change,no change,0.42,inactive,hsa-miR-222*
-0.17,-0.79,no change,no change,0.72,inactive,hsa-miR-376b
1.3,-0.1,no change,no change,1.01,inactive,hsa-miR-21
-1.38,1.92,no change,no change,0.5,inactive,hsa-miR-219-1-3p
0.18,-0.62,no change,no change,0.82,inactive,hsa-miR-549
-1.23,0.28,no change,no change,0.61,inactive,hsa-miR-569
0.64,0.12,no change,no change,0.9,inactive,hsa-miR-106b
0.98,0.16,no change,no change,0.95,inactive,hsa-miR-576-3p
0.1,-0.26,no change,no change,0.81,inactive,hsa-miR-524-3p
0.03,-0.2,no change,no change,0.76,inactive,hsa-miR-494
-0.38,-0.2,no change,no change,0.68,inactive,hsa-miR-508-5p
-0.75,-0.88,no change,no change,0.66,inactive,hsa-miR-525-5p
-0.71,2.69,no change,no change,0.68,inactive,hsa-miR-133b
